Data: the supplement of paper PMC8728848
Some of the results follow.

Columns and labels:
Assay in all cases: glycan array binding signal (z-score within array); higher = stronger binding
Conditions in all cases: glycan notation: IUPAC condensed, linker removed
[1] = target: Fuc(a1-2)Gal6S(b1-3)GlcNAc6S
Method in brief: (§1)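 Columns mapping to the same glycan were averaged after glycan names were converted to IUPAC-condensed notation. The data come from 3228 arrays in the Consortium for Functional Glycomics database, limited to those with an available protein sequence. Binding is reported as a within-array Z-score averaged across arrays of one protein sequence and across linkers.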

Fuc(a1-2)Gal6S(b1-4)Glc = target: Fuc(a1-2)Gal6S(b1-4)Glc
Method in brief: as §1

[2] = target: Fuc(a1-2)Gal6S(b1-4)Glc6S
Method in brief: as §1

Fuc(a1-2)[Gal(a1-3)]Gal = target: Fuc(a1-2)[Gal(a1-3)]Gal
Method in brief: as §1

[3] = target: Fuc(a1-2)[Gal(a1-3)]Gal(b1-3)GalNAc
Method in brief: as §1

[4] = target: Fuc(a1-2)[Gal(a1-3)]Gal(b1-3)GalNAc(b1-3)Gal(a1-4)Gal(b1-4)Glc
Method in brief: as §1

[5] = target: Fuc(a1-2)[Gal(a1-3)]Gal(b1-3)GlcNAc
Method in brief: as §1

[6] = target: Fuc(a1-2)[Gal(a1-3)]Gal(b1-3)GlcNAc(b1-2)Man(a1-3)[Fuc(a1-2)[Gal(a1-3)]Gal(b1-3)GlcNAc(b1-2)Man(a1-6)]Man(b1-4)GlcNAc(b1-4)GlcNAc
Method in brief: as §1

[7] = target: Fuc(a1-2)[Gal(a1-3)]Gal(b1-3)GlcNAc(b1-2)Man(a1-3)[Fuc(a1-2)[Gal(a1-3)]Gal(b1-3)GlcNAc(b1-2)Man(a1-6)]Man(b1-4)GlcNAc(b1-4)[Fuc(a1-6)]GlcNAc
Method in brief: as §1

[8] = target: Fuc(a1-2)[Gal(a1-3)]Gal(b1-3)GlcNAc(b1-3)GalNAc
Method in brief: as §1

[9] = target: Fuc(a1-2)[Gal(a1-3)]Gal(b1-3)GlcNAc(b1-6)GalNAc
Method in brief: as §1

[10] = target: Fuc(a1-2)[Gal(a1-3)]Gal(b1-4)Glc
Method in brief: as §1

[11] = target: Fuc(a1-2)[Gal(a1-3)]Gal(b1-4)GlcNAc
Method in brief: as §1

[12] = target: Fuc(a1-2)[Gal(a1-3)]Gal(b1-4)GlcNAc(b1-2)Man
Method in brief: as §1

[13] = target: Fuc(a1-2)[Gal(a1-3)]Gal(b1-4)GlcNAc(b1-2)Man(a1-3)[Fuc(a1-2)[Gal(a1-3)]Gal(b1-4)GlcNAc(b1-2)Man(a1-6)]Man(b1-4)GlcNAc(b1-4)GlcNAc
Method in brief: as §1

[14] = target: Fuc(a1-2)[Gal(a1-3)]Gal(b1-4)GlcNAc(b1-2)Man(a1-3)[Fuc(a1-2)[Gal(a1-3)]Gal(b1-4)GlcNAc(b1-2)Man(a1-6)]Man(b1-4)GlcNAc(b1-4)[Fuc(a1-6)]GlcNAc
Method in brief: as §1

[15] = target: Fuc(a1-2)[Gal(a1-3)]Gal(b1-4)GlcNAc(b1-3)GalNAc
Method in brief: as §1

[16] = target: Fuc(a1-2)[Gal(a1-3)]Gal(b1-4)GlcNAc(b1-3)[Fuc(a1-2)[Gal(a1-3)]Gal(b1-4)GlcNAc(b1-6)]GalNAc
Method in brief: as §1

[17] = target: Fuc(a1-2)[Gal(a1-3)]Gal(b1-4)GlcNAc(b1-6)GalNAc
Method in brief: as §1

[18] = target: Fuc(a1-2)[Gal(a1-3)]Gal(b1-4)[Fuc(a1-3)]Glc
Method in brief: as §1

[19] = target: Fuc(a1-2)[Gal(a1-3)]Gal(b1-4)[Fuc(a1-3)]GlcNAc
Method in brief: as §1

[20] = target: Fuc(a1-2)[Gal(a1-3)]Gal(b1-4)[Fuc(a1-3)]GlcNAc(b1-3)GalNAc
Method in brief: as §1

[21] = target: Fuc(a1-2)[Gal(a1-4)]Gal(b1-4)GlcNAc
Method in brief: as §1

[22] = target: Fuc(a1-2)[GalNAc(a1-3)]Gal
Method in brief: as §1

[23] = target: Fuc(a1-2)[GalNAc(a1-3)]Gal(b1-3)GalNAc(a1-3)[Fuc(a1-2)]Gal(b1-4)GlcNAc
Method in brief: as §1

[24] = target: Fuc(a1-2)[GalNAc(a1-3)]Gal(b1-3)GalNAc(b1-3)Gal(a1-4)Gal(b1-4)Glc
Method in brief: as §1

[25] = target: Fuc(a1-2)[GalNAc(a1-3)]Gal(b1-3)GlcNAc
Method in brief: as §1

[26] = target: Fuc(a1-2)[GalNAc(a1-3)]Gal(b1-3)GlcNAc(b1-2)Man(a1-3)[Fuc(a1-2)[GalNAc(a1-3)]Gal(b1-3)GlcNAc(b1-2)Man(a1-6)]Man(b1-4)GlcNAc(b1-4)GlcNAc
Method in brief: as §1

[27] = target: Fuc(a1-2)[GalNAc(a1-3)]Gal(b1-3)GlcNAc(b1-2)Man(a1-3)[Fuc(a1-2)[GalNAc(a1-3)]Gal(b1-3)GlcNAc(b1-2)Man(a1-6)]Man(b1-4)GlcNAc(b1-4)[Fuc(a1-6)]GlcNAc
Method in brief: as §1

[28] = target: Fuc(a1-2)[GalNAc(a1-3)]Gal(b1-3)GlcNAc(b1-3)GalNAc
Method in brief: as §1

[29] = target: Fuc(a1-2)[GalNAc(a1-3)]Gal(b1-3)GlcNAc(b1-6)GalNAc
Method in brief: as §1

[30] = target: Fuc(a1-2)[GalNAc(a1-3)]Gal(b1-4)Glc
Method in brief: as §1

[31] = target: Fuc(a1-2)[GalNAc(a1-3)]Gal(b1-4)GlcNAc
Method in brief: as §1

[32] = target: Fuc(a1-2)[GalNAc(a1-3)]Gal(b1-4)GlcNAc(b1-2)Man
Method in brief: as §1

[33] = target: Fuc(a1-2)[GalNAc(a1-3)]Gal(b1-4)GlcNAc(b1-2)Man(a1-3)[Fuc(a1-2)[GalNAc(a1-3)]Gal(b1-4)GlcNAc(b1-2)Man(a1-6)]Man(b1-4)GlcNAc(b1-4)GlcNAc
Method in brief: as §1

[34] = target: Fuc(a1-2)[GalNAc(a1-3)]Gal(b1-4)GlcNAc(b1-2)Man(a1-3)[Fuc(a1-2)[GalNAc(a1-3)]Gal(b1-4)GlcNAc(b1-2)Man(a1-6)]Man(b1-4)GlcNAc(b1-4)[Fuc(a1-6)]GlcNAc
Method in brief: as §1

[35] = target: Fuc(a1-2)[GalNAc(a1-3)]Gal(b1-4)GlcNAc(b1-3)Gal(b1-4)GlcNAc
Method in brief: as §1

[36] = target: Fuc(a1-2)[GalNAc(a1-3)]Gal(b1-4)GlcNAc(b1-3)Gal(b1-4)GlcNAc(b1-3)Gal(b1-4)GlcNAc
Method in brief: as §1

[37] = target: Fuc(a1-2)[GalNAc(a1-3)]Gal(b1-4)GlcNAc(b1-3)GalNAc
Method in brief: as §1

[38] = target: Fuc(a1-2)[GalNAc(a1-3)]Gal(b1-4)GlcNAc(b1-3)[Fuc(a1-2)[GalNAc(a1-3)]Gal(b1-4)GlcNAc(b1-6)]GalNAc
Method in brief: as §1

[39] = target: Fuc(a1-2)[GalNAc(a1-3)]Gal(b1-4)GlcNAc(b1-6)GalNAc
Method in brief: as §1

[40] = target: Fuc(a1-2)[GalNAc(a1-3)]Gal(b1-4)[Fuc(a1-3)]GlcNAc
Method in brief: as §1

[41] = target: Fuc(a1-2)[GalNAc(a1-3)]Gal(b1-4)[Fuc(a1-3)]GlcNAc(b1-3)GalNAc
Method in brief: as §1

[42] = target: Fuc(a1-2)[GalNAc(a1-4)]Gal(b1-4)GlcNAc
Method in brief: as §1

[43] = target: Fuc(a1-2)[GalNAc(b1-3)]Gal
Method in brief: as §1

B1: YghJ (Escherichia coli), E3PJ90 (protein)
chain: MNKKFKYKKSLLAAILSATLLAGCDGGGSGSSSDTPPVDSGTGSLPEVKPDPTPNPEPTPEPTPDPEPTPEPIPDPEPTPEPEPEPVPTKTGYLTLGGSQRVTGATCNGESSDGFTFKPGEDVTCVAGNTTIATFNTQSEAARSLRAVEKVSFSLEDAQELAGSDDKKSNAVSLVTSSNSCPANTEQVCLTFSSVIESKRFDSLYKQIDLAPEEFKKLVNEEVENNAATDKAPSTHTSPVVPVTTPGTKPDLNASFVSANAEQFYQYQPTEIILSEGRLVDSQGYGVAGVNYYTNSGRGVTGENGEFSFSWGEAISFGIDTFELGSVRGNKSTIALTELGDEVRGANIDQLIHRYSTTGQNNTRVVPDDVRKVFAEYPNVINEIINLSLSNGATLGEGEQVVNLPNEFIEQFNTGQAKEIDTAICAKTDGCNEARWFSLTTRNVNDGQIQGVINKLWGVDTNYKSVSKFHVFHDSTNFYGSTGNARGQAVVNISNAAFPILMARNDKNYWLAFGEKRAWDKNELAYITEAPSIVRPENVTRETASFNLPFISLGQVGDGKLMVIGNPHYNSILRCPNGYSWNGGVNKDGQCTLNSDPDDMKNFMENVLRYLSNDRWLPDAKSSMTVGTNLETVYFKKHGQVLGNSAPFAFHKDFTGITVKPMTSYGNLNPDEVPLLILNGFEYVTQWGSDPYSIPLRADTSKPKLTQQDVTDLIAYMNKGGSVLIMENVMSNLKEESASGFVRLLDAAGLSMALNKSVVNNDPQGYPDRVRQRRSTPIWVYERYPAVDGKPPYTIDDTTKEVIWKYQQENKPDDKPKLEVASWQEEVEGKQVTQFAFIDEADHKTPESLAAAKQRILDAFPGLEVCKDSDYHYEVNCLEYRPGTDVPVTGGMYVPQYTQLDLSADTAKAMLQAADLGTNIQRLYQHELYFRTNGRQGERLNSVDLERLYQNMSVWLWNETKYRYEEGKEDELGFKTFTEFLNCYTNNAYVGTQCSAELKKSLIDNKMIYGEESSKAGMMNPSYPLNYMEKPLTRLMLGRSWWDLNIKVDVEKYPGVVNTNGETVTQNINLYSAPTKWFAGNMQSTGLWAPAQQEVSIESKSTVPVTVTVALADDLTGREKHEVSLNRPPRVTKTYDLKANDKVTFKVPYGGLIYIKGDSKEVQSADFTFTGVVKAPFYKDGKWQHDLNSPAPLGELESASFVYTTPKKNLNASNYTGGLEQFANDLDTFASSMNDFYGRDSEDGKHRMFTYKNLPGHKHRFANDVQISIGDAHSGYPVMNSSFSPNSTTLPTTPLNDWLIWHEVGHNAAETPLTVPGATEVANNVLALYMQDRYLGKMNRVADDITVAPEYLEESNGQAWARGGAGDRLLMYAQLKEWAEKNFDIKKWYPDGTPLPEFYSEREGMKGWNLFQLMHRKARGDEVSNDKFGGKNYCAESNGNAADTLMLCASWVAQTDLSEFFKKWNPGANAYQLPGASEMSFEGGVSQSAYNTLASLDLPKPEQGPETINQVTEHKMSAE
For B1, the “glycan array binding signal (z-score)” value [1] was 3.49, the “glycan array binding signal (z-score)” value (Fuc(a1-2)Gal6S(b1-4)Glc) was 0.056 and the “glycan array binding signal (z-score)” value [2] was -0.778. For the same binder, the “glycan array binding signal (z-score)” value (Fuc(a1-2)[Gal(a1-3)]Gal) was -0.372, the “glycan array binding signal (z-score)” value [3] was -0.508 and the “glycan array binding signal (z-score)” value [4] was 1.55. The “glycan array binding signal (z-score)” value [5] was 0.682, the “glycan array binding signal (z-score)” value [6] was 0.287 and the “glycan array binding signal (z-score)” value [7] was -0.818. The “glycan array binding signal (z-score)” value [8] was 0.158, the “glycan array binding signal (z-score)” value [9] was -0.781 and the “glycan array binding signal (z-score)” value [10] was -1.23. The “glycan array binding signal (z-score)” value [11] was 1.95, the “glycan array binding signal (z-score)” value [12] was -1.3 and the “glycan array binding signal (z-score)” value [13] was 0.733. For the same binder, the “glycan array binding signal (z-score)” value [14] was -0.117, the “glycan array binding signal (z-score)” value [15] was -0.597 and the “glycan array binding signal (z-score)” value [16] was -0.682. For the same binder, the “glycan array binding signal (z-score)” value [17] was 0.424, the “glycan array binding signal (z-score)” value [18] was -0.249 and the “glycan array binding signal (z-score)” value [19] was 1.74. For the same binder, the “glycan array binding signal (z-score)” value [20] was 0.688, the “glycan array binding signal (z-score)” value [21] was 0.875 and the “glycan array binding signal (z-score)” value [22] was -0.322. The “glycan array binding signal (z-score)” value [23] was -0.92, the “glycan array binding signal (z-score)” value [24] was -0.408 and the “glycan array binding signal (z-score)” value [25] was -0.62. The “glycan array binding signal (z-score)” value [26] was 0.546, the “glycan array binding signal (z-score)” value [27] was 0.894 and the “glycan array binding signal (z-score)” value [28] was -0.694. For the same binder, the “glycan array binding signal (z-score)” value [29] was -1.17, the “glycan array binding signal (z-score)” value [30] was -2.03 and the “glycan array binding signal (z-score)” value [31] was 0.444. For the same binder, the “glycan array binding signal (z-score)” value [32] was 0.302, the “glycan array binding signal (z-score)” value [33] was 1.27 and the “glycan array binding signal (z-score)” value [34] was 0.686. For the same binder, the “glycan array binding signal (z-score)” value [35] was -0.083, the “glycan array binding signal (z-score)” value [36] was 0.828 and the “glycan array binding signal (z-score)” value [37] was -1.59. For the same binder, the “glycan array binding signal (z-score)” value [38] was -0.647, the “glycan array binding signal (z-score)” value [39] was 0.95 and the “glycan array binding signal (z-score)” value [40] was -0.532. The “glycan array binding signal (z-score)” value [41] was 0.864, the “glycan array binding signal (z-score)” value [42] was -0.373 and the “glycan array binding signal (z-score)” value [43] was 2.12.
